Measured values: PMC9276262 (ChemMedChem, 2021)

How the values were obtained:
aromatase = settings: read-out: IC50 (nM) Literature; literature range; cited from earlier work
CYP19A1 (aromatase) = biological target: T1, CYP19A1 (aromatase) (Homo sapiens, UniProt P11511); assay: cell-based
T1 sequence (P11511 1-503): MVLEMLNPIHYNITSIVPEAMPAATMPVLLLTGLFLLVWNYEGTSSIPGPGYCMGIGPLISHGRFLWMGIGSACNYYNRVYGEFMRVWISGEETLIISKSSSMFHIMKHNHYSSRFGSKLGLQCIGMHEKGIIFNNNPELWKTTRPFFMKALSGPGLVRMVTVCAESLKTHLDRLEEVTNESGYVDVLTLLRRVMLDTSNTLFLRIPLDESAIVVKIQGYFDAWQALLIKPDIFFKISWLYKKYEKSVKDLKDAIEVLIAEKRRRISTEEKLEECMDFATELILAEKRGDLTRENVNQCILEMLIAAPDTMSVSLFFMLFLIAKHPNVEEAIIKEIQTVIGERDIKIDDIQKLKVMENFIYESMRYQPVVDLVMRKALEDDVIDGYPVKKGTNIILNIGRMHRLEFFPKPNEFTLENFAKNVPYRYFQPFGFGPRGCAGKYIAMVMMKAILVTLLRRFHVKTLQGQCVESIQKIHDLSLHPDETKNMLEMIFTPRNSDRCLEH

[1] = biological target: T2, purified recombinant aromatase (Homo sapiens, UniProt P11511); assay: biochemical
T2 sequence (P11511 1-503): T1 sequence (P11511 1-503)

In the case of CC(C)(C#N)c1cc(Cn2cncn2)cc(C(C)(C)C#N)c1 [Anastrozole, anastrozole], the IC50 (aromatase) is given as 0.8 to 600 nM, the IC50 (CYP19A1 (aromatase)) is given as 9.6 nM and the IC50 [1] is given as 3.3 nM.
